Assay results as given in PubChem BioAssay AID1487 (National Center for Advancing Translational Sciences (NCATS), 2009).
About 25 (0.01%) of roughly 200,000 compounds were called active. The shares of active, inactive and inconclusive entries below differ from those in the screen. Calls come from the whole dose curve; as a rule, active = well fitted inhibition curve with a large enough effect in the signal ratio, with a control signal flat (not every such curve was filed as active); inconclusive = small, poorly fitted or top-dose-only effect, or effect the other way, or a change in a side signal; inactive = flat fitted curve, though single readings scatter; the % refers to the signal ratio. Potencies beside an inconclusive call are fits to weak or partial responses and may not hold up.

Experiment: qHTS Assay for Modulators of Lamin A Splicing
Settings: HeLa LMNA splicing GFP/RFP minigene ratio, 48 h; ratio change, negative = inhibition: at 46.1 µM (top of the series) unless noted
Outline: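 S3 HeLa stable clones carrying a lamin A-EGFP splicing minigene plus DsRed2 were seeded at 600 cells/well in Opti-MEM with 2% FBS, pin-dosed and incubated 48 h at 37°C. Acumen cytometry (488 nm) gave the GFP/RFP total-intensity ratio.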
% is set by controls: 0 for no effect and ±100 for the full control effect; potency is the fitted concentration of half-maximal effect.

Row | Compound | ratio change, negative = inhibition | Potency
1 | CC1CC(C)CN(CCOCCSc2ccccc2)C1 (centres undefined) | inconclusive: -10.5% | 
2 | Cc1ccc(C(=O)Nc2cc(C(C)C)c(O)c(C(C)C)c2)cc1 | inconclusive: -20.7% | 
3 | Cc1cc2c(cc1NC(=O)c1ccccc1C)n(C)c(=O)c(=O)n2C | inactive | 
4 | Cc1ccc(C)c(CN2C(=O)C3(OCCCO3)c3ccccc32)c1 | inconclusive: -4.22% | 
5 | O=C(NCCc1ccccc1)c1cnc2n(c1=O)CCS2 | inactive: 13.2% [at 9.22 µM] | 
6 | O=C(CSc1n[nH]c(-c2ccco2)n1)Nc1sc2c(c1C(=O)Nc1ccccc1)CCCC2 | inactive | 
7 | O=C(CN1C(=O)S/C(=C\c2ccc(Cl)cc2)C1=O)NNC(=O)c1ccccc1O |  | inconclusive: 35.5 µM [fluorescent, single point]
8 | O=C(CSc1ncnc2ccccc12)Nc1ccc2c(c1)OCO2 | inconclusive: -45.5% | 
9 | Cc1cc(OCC(=O)Nc2ccncc2)ccc1[N+](=O)[O-] |  | inconclusive: 35.5 µM [falling, single point]
10 | O=C(Nc1ccc(S(=O)(=O)N2CCCCC2c2cccnc2)cc1)c1ccc(Br)cc1 (centres undefined) | inconclusive: -25.6% [at 46 µM] | 
11 | Cc1cc(N2CCN(c3nc4ccccc4s3)CC2)n2ncnc2n1 | inactive | 
12 | Cc1ccc(-n2cc(C(=O)Oc3cccc(C)c3)c3ccccc3c2=O)cc1 | inconclusive: -13.6% [at 46 µM] | 
13 | CCc1nn2c(=O)cc(COC(=O)CNC(=O)COc3ccc(C)cc3)nc2s1 | inactive | 
14 | COc1ccc(NC(=O)c2c(NCc3sccc3C)sc3c2CCCC3)c(OC)c1 | inactive | 
15 | OCCC1CN(Cc2c(O)ccc3ccccc23)CCN1CCc1ccccc1 (centres undefined) |  | inconclusive: 1.12 µM [inhibitor, partial curve, poor fit]
16 | O=S(=O)(NCCc1ccccc1)c1cccc(S(=O)(=O)N2CCOCC2)c1 | inactive | 
17 | COc1cc(/C=N/Nc2nc3ccccc3[nH]2)cc(Br)c1OCC(=O)N(C)C |  | inconclusive: 22.4 µM [inhibitor, partial curve, poor fit]
18 | NC(=O)CCCc1nc(-c2ccccc2Cl)no1 | inconclusive: -12.8% | 
19 | CC(O)CNC(=O)C(=O)Nc1c2c(nn1-c1ccc(Cl)cc1)CSC2 (centres undefined) | inconclusive: -11% [at 46 µM] | 
20 | COc1cccc(Nc2ncc3nc(-c4cn(C)c5ccccc45)c(=O)n(C[C@H]4CCCO4)c3n2)c1 | inconclusive: 27.9% | 
21 | CCOC(=O)N1CCN(Cc2nc3c(c(=O)n(C)c(=O)n3C)n2Cc2cccc(C)c2)CC1 | inactive | 

Row | Compound | ratio change, negative = inhibition | Potency
22 | S=C(Nc1ccccc1)N1CCn2c1nc1ccccc12 | inconclusive: 13.9% | 
23 | Cc1ccc(-n2nc3cc(C)c(NC(=O)COc4ccccc4)cc3n2)cc1 | inconclusive: -0.63% [at 46 µM] | 
24 | O=C(CN(CCO)c1ccccc1)NC12CC3CC(CC(C3)C1)C2 | inconclusive: 5.62% | 
25 | O=C(NCCOc1ccccc1Cl)C(=O)NCCOc1ccccc1Cl | inconclusive: 11.2% [at 46 µM] | 
26 | COc1ccc(SCC(=O)c2cc(C)c(OC(=S)N(C)C)c(C)c2)cc1 |  | inconclusive: 35.5 µM [falling, single point]
27 | CN(C)S(=O)(=O)c1ccc(N2CCCC2)c(C(=O)Nc2ccccc2OC(F)F)c1 | inconclusive: -4.91% [at 46 µM] | 
28 | CC1CN(C(=O)c2cccc(COc3ccc(Br)cc3)c2)CC(C)O1 (centres undefined) |  | inconclusive: 35.5 µM [fluorescent, single point]
29 | CC(C)(C)n1ncc2c(=O)n(CC(=O)Nc3ccc(Cl)cc3)cnc21 | inconclusive: 1.59% | 
30 | CC(/C=N/NC(=O)c1cc(-c2ccccc2)nc2ccccc12)=C\c1ccco1 | inconclusive: -25% | 
31 | COc1ccc(C2NC(=O)NC(O)(C(F)(F)F)C2C(=O)c2ccc(F)cc2)cc1 (centres undefined) | inactive | 
32 | CCOC(=O)C(C(=O)OCC)C1N=C(N)N=C2Oc3ccccc3N21 (centres undefined) | inactive | 
33 | O=C(Nc1ccccc1F)c1c[nH]c(=O)[nH]c1=O |  | inconclusive: 11.2 µM [activator, partial curve]
34 | Cc1ccc(S(=O)(=O)N2CCC(C(=O)OC(C)C(=O)NCc3ccc4c(c3)OCO4)CC2)cc1 (centres undefined) | inactive | 
35 | O=C(C1CCN(c2ccc(N3CCOCC3)nn2)CC1)N1CCN(c2ccc(F)cc2)CC1 | inconclusive: -24.2% | 
36 | COC(=O)NC(NC(=S)Nc1ccc([N+](=O)[O-])cc1)C(Cl)(Cl)Cl (centres undefined) |  | inconclusive: 25.1 µM [falling, single point]
37 | COc1ccc(Cn2c(C)nc3c(c(=O)c4ccccc4n3C)c2=O)cc1 | inconclusive: -33.2% [at 46 µM] | 
38 | O=C(c1ccc(Cl)cc1)c1cc([N+](=O)[O-])ccc1N1CCOCC1 | inactive | 
39 | CCOC(=O)C1=C(C)Nc2ncnn2C1c1cccnc1 (centres undefined) | inactive | 
40 | Cc1ccc([N+](=O)[O-])cc1S(=O)(=O)N1CCCCC1C(=O)O (centres undefined) | inconclusive: -15.1% [at 46 µM] | 
41 | COc1cc2c3c(c1)C(C)CC(C)(C)N3C(=O)C2=O (centres undefined) | inconclusive: -4% [at 46 µM] | 
42 | CCOc1ccc(NC(=O)C2CC(C)=C(C)CC2C(=O)O)cc1 (centres undefined) | inactive | 

Row | Compound | ratio change, negative = inhibition | Potency
43 | Cc1noc(C)c1-c1cc(NCCN2CCOCC2)ncn1 | inactive | 
44 | c1ccc(COc2ccc(Nc3ncnc4nc[nH]c34)cc2)cc1 | inactive | 
45 | CCN1CCN(c2ncnc3c2oc2nc(C(C)C)c4c(c23)CCC4)CC1 | inactive | 
46 | NC(=O)c1cccc(N)c1 |  | inconclusive: 0.0013 µM [cytotoxic]
47 | Nn1c(-c2cccc(Br)c2)n[nH]c1=S | inactive | 
48 | COc1ccc(-n2c(C)cc(C(=O)NC3CCCCC3)c2C)cc1 | inactive | 
49 | O=C(Nc1ccc(F)cc1)c1ccccc1NS(=O)(=O)N1CCCC1 | inconclusive: 5.66% [at 46 µM] | 
50 | CCOc1ncccc1C(=O)Nc1nnc(C)s1 | inconclusive: 16.8% [at 9.22 µM] | 
51 | O=C(NCc1cccnc1)c1cccc(NC(=O)c2ccco2)c1 | inconclusive: -1.18% | 
52 | Cc1cc(C)c2c(CN3CCN(Cc4ccc5c(c4)OCO5)CC3)cc(=O)oc2c1C | inconclusive: 11.8% | 
53 | Cc1c(CCNC(=O)Cc2ccccc2)sc2nc(-c3ccc(F)cc3)nn12 | inconclusive: 16.6% [at 46 µM] | 
54 | CN(C)C/C=C(\c1ccc(Br)cc1)c1cccnc1 | inconclusive: -14% | 
55 | CCOc1ccccc1N(C)C(=O)C1CCCN(c2ncnc3onc(-c4ccc(F)cc4)c23)C1 (centres undefined) | inactive | 
56 | CCN(CC)CCNC(=O)Cn1ncc2c([nH]c3ccccc32)c1=O | inconclusive: 30.4% [at 46 µM] | 
57 | COCCNC(=O)C1CCCN(S(=O)(=O)c2ccc3c(ccn3C)c2)C1 (centres undefined) | inactive | 
58 | Cc1cc(NC(=O)c2ccccc2-c2ccccc2)ccc1Br |  | inconclusive: 35.5 µM [fluorescent, single point]
59 | Cc1ccn2c(CNCCn3nc(C)cc3C)c(C(=O)N3CCCCCC3)nc2c1 | inconclusive: 18.7% [at 46 µM] | 
60 | Cc1ccc2nc(N(Cc3cccnc3)C(=O)C3COc4ccccc4O3)sc2c1 (centres undefined) | inconclusive: 13.7% [at 46 µM] | 
61 | Cc1c(Cl)cn2c(=O)cc(CN(C)Cc3nc4ccccc4c(=O)[nH]3)nc2c1Cl | inactive | 
62 | CC1=CC(C)(C)N(C(=O)CSc2ncn[nH]2)c2ccc(C)cc21 | inconclusive: 5.11% | 
63 | O=c1cc(Cn2ccnc2)c2cc3c(cc2o1)CCC3 | inconclusive: 17% | 

Structures shown so far that have a thiophene ring, fused or not, in the order listed:
Row | Compound | ratio change, negative = inhibition | Potency
6 | O=C(CSc1n[nH]c(-c2ccco2)n1)Nc1sc2c(c1C(=O)Nc1ccccc1)CCCC2 | inactive | 
14 | COc1ccc(NC(=O)c2c(NCc3sccc3C)sc3c2CCCC3)c(OC)c1 | inactive | 

Next results follow.

Row | Compound | ratio change, negative = inhibition | Potency
64 | COc1ccc(CNC(=O)COCc2cc(-c3cccs3)on2)cc1OC | inactive | 
65 | Cc1ccc(S(=O)(=O)NNC(=O)Nc2ccc(Cl)c(Cl)c2)cc1 | inconclusive: -28.5% [at 46 µM] | 
66 | c1ccc(CSCc2cn3ccccc3n2)cc1 | inactive | 
67 | CNc1ccnc(-c2ccccc2C(F)(F)F)n1 | inactive | 
68 | CCCSc1nc(C)c(-c2csc(C(C#N)=C3CCCC3)n2)cc1C#N | inconclusive: 16.3% | 
69 | Nc1nc(SCc2ccc(Cl)cc2Cl)nc2nc3c(cc12)CCCC3 | inconclusive: 20.2% | 
70 | Cc1cc(/C=N/Nc2ccc([N+](=O)[O-])cn2)c(C)n1-c1ccccc1 | inactive | 
71 | CCOc1ccccc1NC(=O)CC1Nc2ccccc2NC1=O (centres undefined) | inactive | 
72 | Cn1cc(SCC(=O)NCC2CCCO2)c2ccccc21 (centres undefined) | inactive | 
73 | CN(CC(=O)Nc1ccncc1)S(=O)(=O)c1ccc(Cl)cc1 | inconclusive: -15.4% | 
74 | COc1ccc(CNC(=O)CC2N=C3c4ccccc4N=C(SCC(=O)Nc4ccc(N(C)C)cc4)N3C2=O)cc1 (centres undefined) | inactive | 
75 | CCOC(=O)/C(=C\c1c[nH]c2ccccc12)NC(C)=O | inconclusive: -4.16% | 
76 | CCCCC(CC)Cn1c2nc3ccccc3nc2c2c(=N)oc(C)nc21 (centres undefined) | inconclusive: 33% | 
77 | CCOC(=O)C1=C(C)NC(=S)NC1c1ccc(-c2ccc(Cl)cc2)o1 (centres undefined) |  | inconclusive: 35.5 µM [fluorescent, single point]
78 | CCOC(=O)c1c(NC(=O)Cc2cccs2)sc(C)c1C | inactive | 
79 | Cn1nc(CC(=O)Nc2ccc3c(c2)OCCO3)c2ccccc2c1=O |  | inconclusive: 1.26 µM [fluorescent, full curve]
80 | COc1ccc(OCC(=O)Nc2cc(-c3cccc(Cl)c3)nn2-c2ccccc2)cc1 | inconclusive: 31.1% [at 46 µM] | 
81 | COC(=O)Cc1[nH]nc2c1C1(C(=O)N(Cc3ccccc3)c3ccccc31)C(C#N)=C(N)O2 (centres undefined) | inactive | 
82 | O=C(NC1CCCCC1)c1ccc2c(c1)sc1nc(-c3ccccc3)cn12 | inactive | 
83 | CCN1C(=O)N[C@H](c2ccc(Br)cc2)C(C(C)=O)=C1C | inconclusive: 5.89% | 
84 | CCN(CC)c1ccc(NS(=O)(=O)c2ccc3c(c2)CCCN3C(C)=O)c(C)c1 | inconclusive: -5.77% [at 46 µM] | 

Laid out differently: 3 of the compounds above
Row	Compound	ratio change, negative = inhibition	Potency
34	Cc1ccc(S(=O)(=O)N2CCC(C(=O)OC(C)C(=O)NCc3ccc4c(c3)OCO4)CC2)cc1 (centres undefined)	inactive	
35	O=C(C1CCN(c2ccc(N3CCOCC3)nn2)CC1)N1CCN(c2ccc(F)cc2)CC1	inconclusive: -24.2%	
36	COC(=O)NC(NC(=S)Nc1ccc([N+](=O)[O-])cc1)C(Cl)(Cl)Cl (centres undefined)		inconclusive: 25.1 µM [falling, single point]
